Source: PubChem BioAssay AID493014 (National Center for Advancing Translational Sciences (NCATS), 2011)
The list shows a part of the results. Shown are side measurements of this screen, not its main read-out; they come without a call. Compounds called inactive in the main read-out are mostly missing here. Words in brackets tell the shape of the fitted curve; partial curves, single points and poor fits give uncertain potencies.

Assay: qHTS Assay to Find Inhibitors of Chronic Active B-Cell Receptor Signaling
Conditions: ABC-DLBCL IkBa-CBG/CBR reporter, luminescence ratio (green luciferase fused to IkBa over red control in TMD8 lymphoma cells), 4 h
How it was run: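 Doxycycline induced both beetle luciferases in TMD8 lymphoma cells; IKK-driven degradation limits the IkappaBalpha-fused green signal, while red luminescence normalises for cell number and nonspecific effects. Compounds tested up to 46 uM, 4 hrs.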

[1] = measured here: CBR red luminescence, cell number

Q: Which AC50 [1] does the source give for C[C@H](C(=O)CC(=O)OC(C)(C)C)[C@H](O)c1ccc(C(F)(F)F)cc1 here?
A: 6.31 µM [falling, single point]

Q: With CCn1cc(C(=O)N2CCN(c3cccc(Cl)c3)CC2)c2cc(OC)c(OC)cc2c1=O as the compound, how does the AC50 [1] read?
A: 20.6 µM [falling, single point]

Q: Which AC50 [1] does the source give for Cc1cc(C)c(C#N)c(N2CCSCC2)n1 here?
A: 31.6 µM [rising, single point]

Q: Which AC50 [1] does the source give for O=C(CN1CCCc2ccccc21)N/N=C/c1ccc(F)cc1F here?
A: 11.2 µM [falling, partial curve, poor fit]

Q: For CN(C)S(=O)(=O)Oc1cccc(C(=O)Nc2cccc(Cl)c2)c1, which AC50 [1] is on record?
A: 25.1 µM [falling, single point]

Q: With N#CC1(NC(=O)CN2c3cccc4cccc(c34)S2(=O)=O)CCCCC1 as the compound, how does the AC50 [1] read?
A: 16.4 µM [rising, partial curve, poor fit]

Q: Which AC50 [1] does the source give for CCOC(=O)c1ccc(NC(=O)CSc2nc(C)nc3c2c(=O)n(C)c(=O)n3C)cc1 here?
A: 32.6 µM [rising, single point]

Q: Which AC50 [1] does the source give for CSS(=O)(=O)c1cccc2cccnc12 here?
A: 35.5 µM [falling, single point]

Q: With Cc1cccc(N/N=C/c2ccc(O)c(O)c2O)c1 as the compound, how does the AC50 [1] read?
A: 1.78 µM [rising, partial curve, poor fit]

Q: What about the AC50 (measured here: IkBa-CBG green luminescence) of the same compound?
A: 25.1 µM [rising, partial curve, poor fit]

Q: With O=C(COc1ccc(/C=N/NC(=O)c2ccccc2)cc1)Nc1ccc([N+](=O)[O-])cc1 as the compound, how does the AC50 [1] read?
A: 35.5 µM [falling, partial curve, poor fit]

Q: For COc1cccc(-c2cc3onc(-c4ccccc4)c3c(=O)n2C)c1, which AC50 [1] is on record?
A: 23.1 µM [falling, single point]

Q: For COCCNC(=O)CSc1nc2cc(OC)c(OC)cc2c(=O)n1Cc1ccco1, which AC50 [1] is on record?
A: 0.708 µM [falling, full curve]

Q: Which AC50 [1] does the source give for O=C(CNC(=O)c1ccco1)OCc1ccc(Cl)cc1 here?
A: 4.11 µM [rising, single point]

Q: For CC1CCOC2(O1)C(=O)N(CN1CCN(c3cccc(Cl)c3)CC1)c1ccccc12 (centres undefined), which AC50 [1] is on record?
A: 6.31 µM [rising, single point]

Q: With COc1ccc(OCc2cc(C(=O)N[C@H]3CCCCNC3=O)no2)c(Cl)c1 as the compound, how does the AC50 [1] read?
A: 35.5 µM [rising, single point]

Q: Which AC50 [1] does the source give for CC1=NN(c2nc3ccccc3[nH]2)C(=O)/C1=C/N(C)C here?
A: 3.55 µM [falling, full curve]

Q: For NNC(=S)NCCc1ccccc1, which AC50 [1] is on record?
A: 17.8 µM [falling, partial curve, poor fit]

Q: For O=C1Nc2ccccc2/C1=C/C(=O)c1cccs1, which AC50 [1] is on record?
A: 11.6 µM [falling, partial curve]
